Experimental findings from PMC4644952 are described below.

These are yes or no findings as the source states them, for the method shown. For some of these results: Binding can be weak; no strength is given. Where a sequence is shown, tags or fusion partners need not be part of it. For some of these results: In cells and extracts the contact can be indirect.

Test [1] concerns the target T1, N-terminally glutathione S transferase (GST)-tagged FKBP6 (UniProt O75344).
T1 sequence: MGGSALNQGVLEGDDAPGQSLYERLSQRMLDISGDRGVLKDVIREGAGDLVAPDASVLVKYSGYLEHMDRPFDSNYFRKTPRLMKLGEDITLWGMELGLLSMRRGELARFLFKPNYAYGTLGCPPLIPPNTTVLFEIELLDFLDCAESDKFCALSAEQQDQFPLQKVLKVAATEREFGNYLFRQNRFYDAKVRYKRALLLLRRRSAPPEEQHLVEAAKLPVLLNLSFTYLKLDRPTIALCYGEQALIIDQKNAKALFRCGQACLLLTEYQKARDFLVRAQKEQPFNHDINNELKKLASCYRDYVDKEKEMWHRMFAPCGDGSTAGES
Description: pull-down; purified GST-FKBP6 or GST mixed with NS5A-His at an equal molar ratio, 4 °C for 2 h, glutathione Sepharose 4B beads, washed with PBS; Western blotting with anti-6x His antibody; both purified. A general note: A western blot detects proteins with antibodies after separation by electrophoresis.

A further test concerns the target T2, FLAG-tagged FKBP6 (UniProt O75344).
T2 sequence: T1 sequence
The experiment in a line: co-IP; FLAG- and HA-tagged proteins co-expressed in 293T cells, lysed 48 h post-transfection; immunoprecipitation with anti-FLAG or anti-HA antibody, Western blotting.

Test [2] has as its target FLAG-tagged NS5A (N strain, amplified from the N replicon cell line) (hepatitis C virus genotype 1b, strain N). Described as above.

For the molecule “C-terminally Hisx6-tagged NS5A lacking the membrane-anchoring region (domain or fragment)”, in test [1], the binding result is given as “binds”.
On to “N-terminally HA-tagged NS5A region spanning from amino acid residue 1 to 125 (from UniProt Q9WMX2) (domain or fragment)”, for which the binding entry in the test with FLAG-tagged FKBP6 is “binds”.

B1: HA-tagged FKBP5 (protein, UniProt Q13451 1-457)
chain: MTTDEGAKNNEESPTATVAEQGEDITSKKDRGVLKIVKRVGNGEETPMIGDKVYVHYKGKLSNGKKFDSSHDRNEPFVFSLGKGQVIKAWDIGVATMKKGEICHLLCKPEYAYGSAGSLPKIPSNATLFFEIELLDFKGEDLFEDGGIIRRTKRKGEGYSNPNEGATVEIHLEGRCGGRMFDCRDVAFTVGEGEDHDIPIGIDKALEKMQREEQCILYLGPRYGFGEAGKPKFGIEPNAELIYEVTLKSFEKAKESWEMDTKEKLEQAAIVKEKGTVYFKGGKYMQAVIQYGKIVSWLEMEYGLSEKESKASESFLLAAFLNLAMCYLKLREYTKAVECCDKALGLDSANEKGLYRRGEAQLLMNEFESAKGDFEKVLEVNPQNKAARLQISMCQKKAKEHNERDRRIYANMFKKFAEQDAKEEANKAMGKKTSEGVTNEKGTDSQAMEEEKPEGHV
With B1, in test [2], the binding result was “no binding”.

B2: HA-tagged FKBP4 (protein, UniProt Q02790 1-459)
chain: MTAEEMKATESGAQSAPLPMEGVDISPKQDEGVLKVIKREGTGTEMPMIGDRVFVHYTGWLLDGTKFDSSLDRKDKFSFDLGKGEVIKAWDIAIATMKVGEVCHITCKPEYAYGSAGSPPKIPPNATLVFEVELFEFKGEDLTEEEDGGIIRRIQTRGEGYAKPNEGAIVEVALEGYYKDKLFDQRELRFEIGEGENLDLPYGLERAIQRMEKGEHSIVYLKPSYAFGSVGKEKFQIPPNAELKYELHLKSFEKAKESWEMNSEEKLEQSTIVKERGTVYFKEGKYKQALLQYKKIVSWLEYESSFSNEEAQKAQALRLASHLNLAMCHLKLQAFSAAIESCNKALELDSNNEKGLFRRGEAHLAVNDFELARADFQKVLQLYPNNKAAKTQLAVCQQRIRRQLAREKKLYANMFERLAEEENKAKAEASSGDHPTDTEMKEEQKSNTAGSQSQVETEA
As to B2, the binding entry in test [2] is recorded as “no binding”.
